Source: patent publication US20070107077A1, “Microprojectile bombardment transformation of brassica” (Pioneer Hi-Bred International, Inc., priority 2005, published 2007)
At least one structure is not confirmed: it was looked up by name or label, or the drawing left a doubt.

Tested on: bombarded embryos
Test: Effect of kanamycin on embryo growth in liquid medium, bombarded embryos
Parameters: species or system Brassica
Settings: kanamycin at 10 and 20 mg/l

Compound: NC[C@H]1O[C@H](O[C@H]2[C@H](O)[C@@H](O[C@H]3O[C@H](CO)[C@@H](O)[C@H](N)[C@H]3O)[C@H](N)C[C@@H]2N)[C@H](O)[C@@H](O)[C@@H]1O [kanamycin]
- inhibition of growth of the bombarded embryos: failed to inhibit the growth of the bombarded embryos
